Measured values taken from article PMC10917063.

Experiments:
[1] = molecular target: BicDR^K555A::GFP (Drosophila (endogenous in embryos)); experiment: affinity purification with mass spectrometry; anti-GFP IP from embryo extracts, duplicates; SDS-PAGE, Coomassie; bands found in the BicDR::GFP fraction and not in BicDR^K555A::GFP excised and analysed by MS, with the corresponding slices of the control lanes
[2] = molecular target: BicDR^K555A::GFP (Drosophila (endogenous in embryos)); experiment: affinity purification with mass spectrometry; anti-GFP IP from embryo extracts, triplicates; proteomic analysis directly on the precipitated fractions; controls BicDR^K555A::GFP and white (untagged)

binding [1]: no binding
B1: EF1γ, endogenous in embryos (protein, UniProt Q9NJH0 1-431)
chain: MVKGTLYTYPENFRAYKALIAAQYSGAQVKVADNFKFGETNKSAEFLKKFPGGKVPAFETAEGQYLSESNAIAYLLANEQLRGGKCPFVQAQVQQWISFADNEIVPASCAWVFPLLGILPQQKNSTAKQEAEAVLQQLNQKLQDATFLAGERITLADIVVFSSLLHLYEYVLEPSVRSAFGNVNRWFVTILNQKQVQAVVKDYKLCEKALVFDPKKYAEFQAKTGAAKPQQQAQQQKQEKKPKEKKEAPKKAAEPAEELDAADEALAAEPKSKDPFDALPKGTFNFDDFKRVYSNEDEAKSIPYFFDKFDAENYSIWFGEYKYNEELSKVFMSCNLITGMFQRLDKMRKAAFASVCLFGEDGNSTISGIWVWRGQDLAFTLSPDWQIDYEVYDWKKLDAKSEETKKLVTQYFSWSGTDKDGRKFNQGKIFK

binding [1]: no binding
B2: Rumi (protein, UniProt Q8T045 21-411)
chain: EDDGLCSADQKSCAQSEPDQINEDEFSFKIRRQIEKANADYKPCSSDPQDSDCSCHANVLKRDLAPYKSTGVTRQMIESSARYGTKYKIYGHRLYRDANCMFPARCEGIEHFLLPLVATLPDMDLIINTRDYPQLNAAWGNAAGGPVFSFSKTKEYRDIMYPAWTFWAGGPATKLHPRGIGRWDQMREKLEKRAAAIPWSQKRSLGFFRGSRTSDERDSLILLSRRNPELVEAQYTKNQGWKSPKDTLDAPAADEVSFEDHCKYKYLFNFRGVAASFRLKHLFLCKSLVFHVGDEWQEFFYDQLKPWVHYVPLKSYPSQQEYEHILSFFKKNDALAQEIAQRGYDFIWEHLRMKDIKCYWRKLLKRYVKLLQYEVKPEDQLIYIGPKKDEL

binding [2]: no binding
B3: RpS17 (protein, UniProt P17704 1-131)
chain: MGRVRTKTVKKAAKVIIEKYYTRLTLDFHTNKRICEEVAIIPTKPLRNKIAGYVTHLMGRLRHSQVRGISIKLQEEERERRDNYVPAVSALEQDIIEVDADTKEMLKLLDFHNIRGLQLTQPNTNNFGRRN

binding [1]: no binding
B4: Origin recognition complex subunit 6 (protein, UniProt Q9Y1B2 1-257)
chain: MTTLIEQLITKMGLREEPNVLEKTTELVRLLELRSTNVPLQINEYGKIVLCADLASCMIGIAFDKEQALKLSGLRKSQYLNNKRMFEKLLDLNKLASVNDICVQLGLNEVARKAEELMTLFKGVAATEDMGTDTSHPQYATMAVFQACRLLKKKVSKSKLMPFSNLRPSQFQLLEQQWERMIAKHHKESKVPSSTDMEGKLKENQNENIKGHEAKKAHKPPPEDYEIWKARMLAKAQAKLKELEASQSHMDSQLLEA

binding [1]: no binding
B5: Par-6 (protein, UniProt O97111 1-351)
chain: MSKNKINTTSATAASDTNLIEVKSKFDAEFRRWSFKRNEAEQSFDKFASLIEQLHKLTNIQFLILYIDPRDNDLLPINNDDNFGRALKTARPLLRVIVQRKDDLNEYSGFGTMKPRNLIGSILMGHTPVKTKAPSISIPHDFRQVSAIIDVDIVPETHRRVRLLKHGSDKPLGFYIRDGTSVRVTASGLEKQPGIFISRLVPGGLAESTGLLAVNDEVIEVNGIEVAGKTLDQVTDMMVANSSNLIITVKPANQRTLTSTHRGSFSRNSQLSSGSHHTNNTNTSDEIEHDDQDDIVDLTGVTLDESPTSTSAGNHNHQPPLSSSPSSHHQQAASNASTIMASDVKDGVLHL

These are yes or no findings as the source states them, for the method shown. In cells and extracts the contact can be indirect. A yes stands for co-enrichment or nearness to the bait. Other partners may have been found. A no says only that the protein was not detected with the bait. Each block holds one binder with its values, some of them ahead of it.
